Laboratory results: PubChem BioAssay AID248 (DTP/NCI, 2004)
The list does not hold the whole screen: it gathers tests that were run many times, whatever their T/C, doses with no T/C, and many T/C values between a quarter and a half above the control. Other doses and runs of a compound stand elsewhere. T/C: endpoint of the treated group in % of that of the vehicle group. Some doses have a count of surviving animals in place of a T/C: the source holds a T/C of zero for them, seemingly a mark for toxic or unscored doses. Some survivor counts are full or nearly so, which does not show that the dose was tolerated: the source hardly ever lists a survival T/C far under the control, and the zero likely stands for such cases as well. Survivors were counted at the toxicity check, usually on the fifth day, unless a day is given; later deaths do not show. Schedules are NCI's codes, taken here to give the interval after Q, in days (D) or hours (H), and the number of doses after X. Some schedules carry Z or #; the key to these is not given. Where survival is the endpoint, this PubChem deposit counts one and a half times the control or more as active, and values a quarter to a half above the control carry no call in these data; other NCI protocols may use other cut-offs. Some entries hold several experiments; the values are given in rising order.

System: L1210 leukemia ip in BDF1 mice, survival T/C
Test: NCI In Vivo Anticancer Drug Screen. Data for tumor model L1210 Leukemia (intraperitoneal) in B6D2F1 (BDF1) mice
Conditions: T/C endpoint: mean survival time, higher T/C = longer survival
[1] = dose: 300.0 mg/kg/injection, schedule: Q01DX001 (ip), vehicle: saline
[2] = dose: 100.0 mg/kg/injection, schedule: Q04DX003 (ip), vehicle: Klucel (hydroxypropylcellulose) (HPC)
[3] = dose: 200.0 mg/kg/injection, schedule: Q04DX003 (ip), vehicle: Klucel (hydroxypropylcellulose) (HPC)
[4] = dose: 400.0 mg/kg/injection, schedule: Q04DX003 (ip), vehicle: Klucel (hydroxypropylcellulose) (HPC)
[5] = dose: 200.0 mg/kg/injection, schedule: Q01DX001 (ip), vehicle: carboxymethylcellulose (CMC)
[6] = dose: 400.0 mg/kg/injection, schedule: Q01DX001 (ip), vehicle: carboxymethylcellulose (CMC)
[7] = dose: 400.0 mg/kg/injection, schedule: Q01DX001 (ip), vehicle: saline
[8] = dose: 50.0 mg/kg/injection, schedule: Q01DX009 (ip), vehicle: Klucel (hydroxypropylcellulose) (HPC)
[9] = dose: 200.0 mg/kg/injection, schedule: Q01DX001 (ip), vehicle: saline
[10] = dose: 200.0 mg/kg/injection, schedule: Q04DX003 (ip), vehicle: saline with Tween-80
[11] = dose: 400.0 mg/kg/injection, schedule: Q04DX003 (ip), vehicle: saline with Tween-80
[12] = dose: 200.0 mg/kg/injection, schedule: Q01DX009 (ip), vehicle: saline
[13] = dose: 400.0 mg/kg/injection, schedule: Q01DX009 (ip), vehicle: saline
[14] = dose: 200.0 mg/kg/injection, schedule: Q04DX003 (ip), vehicle: saline
[15] = dose: 400.0 mg/kg/injection, schedule: Q04DX003 (ip), vehicle: saline
[16] = dose: 100.0 mg/kg/injection, schedule: Q04DX003 (ip), vehicle: saline with Tween-80

For `C[N+]1(C)C2C=CCC1CSC2` (stereo not drawn), the survivor count (dose: 30.0 mg/kg/injection, schedule: Q01DX001 (ip), vehicle: saline) was 3 of 6, the survivor count (dose: 60.0 mg/kg/injection, schedule: Q01DX001 (ip), vehicle: saline) was 0 of 6 and the survivor count (dose: 75.0 mg/kg/injection, schedule: Q01DX001 (ip), vehicle: saline) was 0 of 6. The survivor count (dose: 150.0 mg/kg/injection, schedule: Q01DX001 (ip), vehicle: saline) was 0 of 6 and the survivor count [1] was 0 of 6.
In the case of `O=C1OC2CCC3C1C3C2Br` (stereo not drawn), the survivor count (dose: 50.0 mg/kg/injection, schedule: Q01DX009 (ip), vehicle: acetone) is reported as 5 of 6 and the survivor count (dose: 100.0 mg/kg/injection, schedule: Q01DX009 (ip), vehicle: acetone) is reported as 0 of 6.
In the case of `Cc1cc(C(=O)O)c(C)n1-c1ccccc1C(=O)O`, the survivor count [2] is reported as 6 of 6, the survivor count [3] is reported as 6 of 6 and the survivor count [4] is reported as 6 of 6.
For `CCCCC1C(=O)N=C2C=CC=CN2C1=O` (stereo not drawn), the survivor count (dose: 400.0 mg/kg/injection, schedule: Q04DX003 (ip), vehicle: other) was 0 of 6.
In the case of `c1cc[c]([Hg][S]c2nc3ccccc3s2)cc1`, the survivor count [5] is reported as 1 of 4 and the survivor count [6] is reported as 0 of 4.
With `OC1CCN(C2(c3ccccc3)CCCCC2)CC1` the survivor count (dose: 400.0 mg/kg/injection, schedule: Q04DX002 (ip), vehicle: Klucel (hydroxypropylcellulose) (HPC)) was 2 of 3.
`CC(C)(C)COC(=O)C(C)(C)CC(C)(C)C` was tested, and the T/C [7] was 148 % of control.
With `C/C(=C1/SC(=S)NC1=O)c1ccccc1O` the survivor count [7] was 2 of 4.
`CN(C)c1ccc2cc3ccc(N(C)C)cc3nc2c1` was tested, and the survivor count (dose: 100.0 mg/kg/injection, schedule: Q04DX002 (ip), vehicle: saline with Tween-80) was 3 of 3, the survivor count (dose: 200.0 mg/kg/injection, schedule: Q04DX002 (ip), vehicle: saline with Tween-80) was 1 of 3 and the survivor count (dose: 400.0 mg/kg/injection, schedule: Q04DX002 (ip), vehicle: saline with Tween-80) was 0 of 3.
For `NC(CS)C(=O)O` (stereo not drawn), the survivor count (dose: 500.0 mg/kg/injection, schedule: Q01DX Z (ip), vehicle: other) was 0 of 7 and the survivor count (dose: 1000.0 mg/kg/injection, schedule: Q01DX Z (ip), vehicle: other) was 0 of 7.
`C=C(Br)CN(CC)CC` was tested, and the survivor count [8] was 2 of 6, the survivor count [2] was 0 of 6 and the survivor count [3] was 0 of 6. The survivor count [4] was 0 of 6.
With `S=C=NCc1ccccc1` the survivor count [1] was 0 of 6.
For `CCCOC(=O)CSC#N`, the survivor count (dose: 20.0 mg/kg/injection, schedule: Q01DX001 (ip), vehicle: saline) was 1 of 4, the survivor count (dose: 40.0 mg/kg/injection, schedule: Q01DX001 (ip), vehicle: saline) was 1 of 4 and the survivor count (dose: 80.0 mg/kg/injection, schedule: Q01DX001 (ip), vehicle: saline) was 0 of 4. For the same compound, the survivor count (dose: 100.0 mg/kg/injection, schedule: Q01DX001 (ip), vehicle: saline) was 0 of 4, the survivor count [9] was 0 of 4 and the survivor count [7] was 0 of 4.
With `CCCCCCCCCCCC(=O)N/N=C(\C)c1cccc2ccccc12` the survivor count (dose: 200.0 mg/kg/injection, schedule: Q01DX009 (ip), vehicle: Klucel (hydroxypropylcellulose) (HPC)) was 6 of 6 and the survivor count (dose: 400.0 mg/kg/injection, schedule: Q01DX009 (ip), vehicle: Klucel (hydroxypropylcellulose) (HPC)) was 0 of 6.
For `COc1ccc(/C=N/NC(=O)C[n+]2ccccc2)c(OC)c1`, the survivor count [10] was 2 of 6 and the survivor count [11] was 0 of 6.
With `NC(N)=N/N=C/c1nccc2ccccc12` the survivor count [9] was 2 of 4 and the survivor count [7] was 0 of 4.
In the case of `CC1C=NNC1=O` (stereo not drawn), the T/C (dose: 150.0 mg/kg/injection, schedule: Q#B X027 (ip), vehicle: saline) is reported as 135 % of control, the T/C (dose: 200.0 mg/kg/injection, schedule: Q01DX009 (ip), vehicle: saline with Tween-80) is reported as 136 % of control and the T/C [12] is reported as 147 % of control. The T/C (dose: 400.0 mg/kg/injection, schedule: Q01DX009 (ip), vehicle: saline with Tween-80) was 131 % of control, the T/C [13] was 140 % of control and the survivor count (dose: 600.0 mg/kg/injection, schedule: Q#B X027 (ip), vehicle: saline) was 1 of 6.
`O=C(NCCCOc1ccc([N+](=O)[O-])cc1)OCc1ccccc1` was tested, and the survivor count [4] was 1 of 6.
For `CN(C)CCN1C(=O)CC(c2ccccc2)Sc2ccccc21` (stereo not drawn), the survivor count (dose: 100.0 mg/kg/injection, schedule: Q01DX009 (ip), vehicle: saline) was 1 of 6, the survivor count (dose: 100.0 mg/kg/injection, schedule: Q04DX003 (ip), vehicle: saline) was 3 of 4 and the survivor count [12] was 0 of 6. For the same compound, the survivor count [14] was 0 of 4, the survivor count [13] was 0 of 6 and the survivor count [15] was 0 of 4.
In the case of `C=CC(=O)Nc1ccc(Cl)cc1`, the survivor count [3] is reported as 2 of 6 and the survivor count [4] is reported as 1 of 6.
In the case of `O/C(=C\C(=S)S)c1ccc(Cl)cc1`, the survivor count (dose: 4.0 mg/kg/injection, schedule: Q01DX009 (ip), vehicle: saline with Tween-80) is reported as 3 of 6, the survivor count (dose: 12.5 mg/kg/injection, schedule: Q04DX003 (ip), vehicle: saline with Tween-80) is reported as 3 of 6 and the survivor count (dose: 25.0 mg/kg/injection, schedule: Q04DX003 (ip), vehicle: saline with Tween-80) is reported as 1 of 6. The survivor count (dose: 50.0 mg/kg/injection, schedule: Q04DX003 (ip), vehicle: saline with Tween-80) was 0 of 6, the survivor count [16] was 0 of 6 and the survivor count [10] was 0 of 6. For the same compound, the survivor count [11] was 0 of 6.
In the case of `CCCCCC(=O)c1c(O)cc(=O)oc1C`, the survivor count (dose: 25.0 mg/kg/injection, schedule: Q01DX009 (ip), vehicle: Klucel (hydroxypropylcellulose) (HPC)) is reported as 5 of 6, the survivor count [8] is reported as 0 of 6 and the survivor count (dose: 100.0 mg/kg/injection, schedule: Q01DX009 (ip), vehicle: Klucel (hydroxypropylcellulose) (HPC)) is reported as 0 of 6. The survivor count [3] was 5 of 6 and the survivor count [4] was 0 of 6.
With `C/C=C/C(=O)Nc1cccc(Cl)c1` the survivor count (dose: 400.0 mg/kg/injection, schedule: Q01DX009 (ip), vehicle: other) was 0 of 6.
With `CCC(C)C(CCCN1CCOCC1)(CNC(=O)CN(CC)CC)c1cccc2ccccc12` (stereo not drawn) the survivor count [14] was 4 of 6 and the survivor count [15] was 1 of 6.
`Nc1ccc2nc3ccc(=O)cc-3n(-c3ccccc3)c2c1` was tested, and the T/C (dose: 4.0 mg/kg/injection, schedule: Q01DX Z (ip), vehicle: methylcellulose (MC)) was 127 % of control, the T/C (dose: 4.8 mg/kg/injection, schedule: Q01DX Z (ip), vehicle: methylcellulose (MC)) was 126 and 129 % of control and the T/C (dose: 7.2 mg/kg/injection, schedule: Q01DX Z (ip), vehicle: methylcellulose (MC)) was 129 and 134 % of control. For the same compound, the T/C (dose: 8.0 mg/kg/injection, schedule: Q01DX Z (ip), vehicle: methylcellulose (MC)) was 127 % of control, the survivor count (dose: 50.0 mg/kg/injection, schedule: Q01DX001 (ip), vehicle: carboxymethylcellulose (CMC)) was 0 of 4 and the survivor count (dose: 80.0 mg/kg/injection, schedule: Q01DX001 (ip), vehicle: carboxymethylcellulose (CMC)) was 0 of 4. For the same compound, the survivor count (dose: 100.0 mg/kg/injection, schedule: Q01DX001 (ip), vehicle: carboxymethylcellulose (CMC)) was 2 of 4, the survivor count [5] was 0 of 4 and the survivor count [6] was 0 of 4.
With `C1COC(NC2CC3CCC2C3)=N1` (stereo not drawn) the survivor count [16] was 3 of 6, the survivor count [10] was 0 of 6 and the survivor count [11] was 0 of 6.
`CCN(CC)CCOc1ccccc1C(C)C` was tested, and the survivor count [14] was 1 of 6 and the survivor count [15] was 0 of 6.
In the case of `CC1CC(C)(C)N=C(CCC[N+](=O)[O-])O1` (stereo not drawn), the survivor count (dose: 100.0 mg/kg/injection, schedule: Q04DX003 (ip), vehicle: other) is reported as 6 of 6.
